Assay results: PubChem BioAssay AID2685 (National Center for Advancing Translational Sciences (NCATS), 2010)
Some of the results follow. Shown are side measurements of this screen, not its main read-out; they come without a call. Compounds called inactive in the main read-out are mostly missing here. The note in brackets gives the kind of curve behind each potency; many fits are weak.

Assay: qHTS Assay for Lipid Storage Modulators in Drosophila S3 Cells;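 on cell number change: cells counted by Cell Tracker Red CMTPX staining in the red channel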
Conditions: BODIPY lipid droplet fluorescence, 18-24 h; for cell number change: measured here: cell count max response, cells fed with added oleic acid
Outline: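 Drosophila S3 cells loaded with oleic acid (400 uM, as added) and compounds at several concentrations; lipid droplets imaged by 488-nm laser-scanning cytometry, 500–530 nm intensity and object ratio to cell channel. Percent activity normalized to 20 uM Triacsin C.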

[1] = measured here: lipid fluorescence (Fed channel) AC50, cells fed with added oleic acid
[2] = measured here: cell number channel AC50, cells fed with added oleic acid

Structure (SMILES)	cell number change	AC50 [1]	AC50 [2]
CN(C)c1ccc(N2CC(C)(C)C2=O)cc1	3.12%	0.731 µM [falling, single point]	
COc1ccc(-c2c(C#Cc3ccsc3)c3cc(-c4ccc(OC)nc4)ccc3n2C)cc1	13.4%	0.731 µM [rising, partial curve]	
O=C(Nc1nc2ccccc2[nH]1)C1CCCO1 (stereo not drawn)	0.0701%	0.00461 µM [rising, full curve, poor fit]	
Cc1ccc(CNC(=O)CCS(=O)(=O)c2cc3c(cc2Cl)NC(=O)CO3)o1	-0.288%	0.164 µM [rising, partial curve, poor fit]	
O=C1CCCC(=O)C1=C1SCCS1	-11.8%	0.116 µM [falling, full curve, poor fit]	
Cc1cccc2cc(CN(CC3CCCO3)C(c3nnnn3Cc3ccco3)C(C)C)c(=O)[nH]c12 (stereo not drawn)	-21.6%		
Cc1cccc(CNc2ncnc3ccc(-c4ccc5c(ccn5C)c4)cc23)c1	-20.5%	14.6 µM [falling, partial curve]	
CC(C)OC(=O)Cn1cnc2ccc(Br)cc2c1=O	-42.9%	29.1 µM [falling, single point]	25.9 µM [falling, single point]
CCOC(=O)CN1C(c2ccc(O)cc2)Nc2ccc(Br)cc2C1c1ccccc1 (stereo not drawn)	-17.4%	13 µM [falling, single point]	
O=S(=O)(c1cc(C(F)(F)F)ccc1Cl)N1CCCCCC1	-32.3%	29.1 µM [falling, single point]	29.1 µM [falling, single point]
CCN(CC(=O)Nc1c(F)cccc1F)C(=O)c1nn(C)c(=O)c2ccccc12	-15.5%	32.6 µM [falling, single point]	
Cc1cn([C@H](C(=O)NCCCCCCCCCCC(=O)N2CCNCC2)[C@@H](C)O)nn1	-36.4%	29.1 µM [falling, single point]	29.1 µM [falling, single point]
CCOc1ccc(N2CC(C(=O)N3CCCC3)CC2=O)cc1 (stereo not drawn)	15.8%	8.2 µM [rising, partial curve]	
CCOc1cc2c3c(c1)C1(C(=O)N3C(C)(C)CC2C)C(C#N)=C(N)N2C(=C1C#N)Nc1ccccc12 (stereo not drawn)	-16.1%	6.51 µM [falling, full curve, poor fit]	
C/C(N)=C(/C#N)C(=O)CSc1cc(Cl)ccc1Cl	-25.4%		0.206 µM [falling, full curve, poor fit]
CCCCCCC1CC(CCC(=O)Nc2ccc([N+](=O)[O-])cc2)C(=O)O1 (stereo not drawn)	22%	0.651 µM [falling, single point]	
COc1ccc(Nc2nc(N3CCCCC3)nc(N3CCCCC3)n2)c(OC)c1	-2.88%		
Cc1nc2ccccc2c2oc(C(=O)N3CCN(c4ccc([N+](=O)[O-])cc4)CC3)cc12		0.206 µM [rising, full curve, poor fit]	0.13 µM [rising, full curve, poor fit]
COC(=O)c1nn(C23CC4CC(CC(C4)C2)C3)c2c1C(=O)N(c1ccc(F)cc1)C2=O	54.5%	20.6 µM [rising, single point]	29.1 µM [rising, single point]

Gathered by group, the compounds so far with an aryl methoxy group (two)
Structure (SMILES)	cell number change	AC50 [1]	AC50 [2]
COc1ccc(-c2c(C#Cc3ccsc3)c3cc(-c4ccc(OC)nc4)ccc3n2C)cc1	13.4%	0.731 µM [rising, partial curve]	
COc1ccc(Nc2nc(N3CCCCC3)nc(N3CCCCC3)n2)c(OC)c1	-2.88%		

Going on with the list.

Structure (SMILES)	cell number change	AC50 [1]	AC50 [2]
CCN(Cc1ccccc1)Cc1nc(CCc2ccccc2)no1		2.31 µM [rising, partial curve, poor fit]	
Cc1ccc(NC(=O)CNc2cccc(S(=O)(=O)N3CCOCC3)c2)cc1F	69.7%		16.4 µM [rising, partial curve, poor fit]
O=C(NC(Cc1ccccc1)C(=O)O)/C(=C\c1ccc(Br)cc1)NC(=O)c1ccc(Br)o1 (stereo not drawn)	22.5%		
COc1ccc(NC(=O)CCN2C(=O)c3ccccc3S2(=O)=O)cc1	9.83%		
CCc1cc2ccc(OC)cc2nc1SCC(=O)Nc1cc(C)on1	-22.4%	0.411 µM [falling, full curve, poor fit]	
CNC(=O)COC(=O)c1cc(NC(=O)c2ccco2)c(OC)c(OC)c1	81%	2.06 µM [rising, partial curve]	0.651 µM [rising, full curve]
CCOC(=O)C1(Cc2cccc(OC)c2)CCN(C2CCOCC2)CC1	-25.8%	4.11 µM [falling, partial curve, poor fit]	
CCNc1nc(C)cc(COC)c1C#N	1.72%	3.26 µM [falling, single point]	6.51 µM [falling, single point]
CCN(C(=S)NCc1ccccc1)c1cccc2ccccc12	74.3%		
Cc1ccc(S(=O)(=O)NC(CC(=O)O)c2ccccc2)cc1 (stereo not drawn)	-27.3%	29.1 µM [falling, single point]	
CCOc1ccc(OCC)c(S(=O)(=O)NNC(=O)c2c(C)nc3ccccn23)c1	3.02%	6.51 µM [rising, single point]	2.31 µM [rising, partial curve, poor fit]
O=C(N/N=C/C(Br)=C/c1ccccc1)C1CC1	19.1%		0.82 µM [rising, full curve, poor fit]
CC1=NN(c2ccc(C)cc2C)C(=O)C1C(c1ccccc1O)C1C(=O)N(c2ccc(C)cc2C)N=C1C (stereo not drawn)	5.3%		
COc1ccc(-c2n[nH]c(=S)n2-c2ccc(C)cc2)cc1OC	-23.4%	29.1 µM [falling, single point]	
COC(=O)N/N=C/c1cn(CCCOc2ccc(C)cc2)c2ccccc12		6.51 µM [rising, partial curve, poor fit]	
COc1cc(NC(=O)C(=O)NNC(=O)C2CCCCC2)c(OC)cc1Cl	-9.87%		1.84 µM [falling, partial curve, poor fit]
Cc1ccc(O)c(NC(=O)c2ccc3c(c2)C(=O)N(CC(C)C)C3=O)c1	8.76%	29.1 µM [rising, single point]	
O=C1CC(C(=O)N2CCOCC2)C2(CCCCC2)O1 (stereo not drawn)	-14.9%	2.06 µM [falling, full curve]	
